The results in this text go back to PMC4907692, “Engineering vanilloid-sensitivity into the rat TRPV2 channel” (eLife, 2016).

Chains of the proteins cited; added tags and fusions are not shown. Residues count along the entry.
UniProt O35433, residues 431-575: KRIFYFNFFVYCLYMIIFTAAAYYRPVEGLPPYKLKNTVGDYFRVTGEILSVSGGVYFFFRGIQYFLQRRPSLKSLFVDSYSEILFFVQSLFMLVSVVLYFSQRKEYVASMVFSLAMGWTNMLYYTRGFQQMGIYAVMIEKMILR

The target in this test is GFP-tagged TRPV1 S1-S4 domain (rat) (UniProt O35433). Kind of test: SEC. (In general: SEC sorts molecules by how far they enter the pores of the column.)

Results are given in words; binding and its absence hold for the method and conditions named.

In the case of “GFP-tagged TRPV1 S1-S4 domain (from UniProt O35433 431-575) (domain or fragment)”, the binding entry is “no binding”.
